Assay results: US8207176B2 (Glaxo Group Limited, priority 2005, dated 2012)
For some assays here: For at least one compound, name, drawing or mass did not settle the structure. Some results were stated once for a whole list of compounds, not compound by compound.

The chains behind the UniProt entries cited, without tags or fusion partners.
UniProt Q16539, whole entry: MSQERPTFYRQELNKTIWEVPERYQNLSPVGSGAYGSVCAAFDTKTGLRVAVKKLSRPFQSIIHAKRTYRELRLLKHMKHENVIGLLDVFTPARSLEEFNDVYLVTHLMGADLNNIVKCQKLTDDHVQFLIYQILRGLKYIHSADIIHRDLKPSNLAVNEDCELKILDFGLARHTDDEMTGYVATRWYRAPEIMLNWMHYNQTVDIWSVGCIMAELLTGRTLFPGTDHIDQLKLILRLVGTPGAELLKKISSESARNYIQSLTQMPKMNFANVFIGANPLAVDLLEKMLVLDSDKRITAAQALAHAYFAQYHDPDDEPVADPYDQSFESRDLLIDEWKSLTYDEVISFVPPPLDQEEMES

Legend:
[1] = target: T1, Recombinant human p38α (MKK6-activated) (Homo sapiens, UniProt Q16539); assay: Time-resolved fluorescence resonance energy transfer (TR-FRET) kinase assay (standard or low volume); format: biochemical; set-up: key: Compounds are considered active in this assay if they demonstrate a pIC50 of greater than 4.6 up to about a pIC50 of greater than 10.0; conditions: MKK6-activated p38α 100 pM, GST-ATF2 400 nM, 120 minutes at room temperature; either assay format
T1 construct: His; made in house
Description: It is noted that there are two assay formats shown above for the Fluorescence anisotropy kinase binding assay. The only difference between these two assays is the volume used and the plate type. […] The results described herein may have been performed in either assay format and are not differentiated as to which. […] TR-FRET Assay Time-Resolved Fluorescence Resonance Energy Transfer Kinase Standard Assay Recombinant human p38α was expressed as a His-tagged protein. To activate this protein, 3 μM unactivated p38α was incubated in 200 mM Hepes pH 7.4, 625 mM NaCl, 1 mM DTT with 27 nM active MKK6 (Upstate), 1 mM ATP and 10 mM MgCl2 The activity of the MKK6-activated p38α was assessed using a time-resolved fluorescence resonance energy transfer (TR-FRET) assay. Biotinylated-GST-ATF2 (residues 19-96, 400 nM final), ATP ([…]) and MgCl2 (5 mM final) in assay buffer (40 mM HEPES pH 7.4, 1 mM DTT) were added to wells containing 1 ul of various concentrations of compound or DMSO vehicle (3% final) in NUNC 384 well black plate. The reaction was initiated by the addition of MKK6-activated p38 (100 pM final) to give a total volume of 30 ul. The reaction was incubated for 120 minutes at room temperature, then terminated by the addition of 15 μl of 100 mM EDTA pH 7.4. Detection reagent (15 μl) in buffer (100 mM HEPES pH 7.4, 150 mM NaCl, 0.1% w/v BSA, 1 mM DTT) containing antiphosphothreonine-ATF2-71 polyclonal antibody (Cell Signalling Technology, Beverly Mass., USA) labelled with W-1024 europium chelate (Wallac OY, Turku, Finland), and APC-labelled streptavidin (Prozyme, San Leandro, Calif., USA) was added and the reaction was further incubated for 60 minutes at room temperature. The degree of phosphorylation of GST-ATF2 was measured using a Packard Discovery plate reader (Perkin-Elmer Life Sciences, Pangbourne, UK) as a ratio of specific 665 nm energy transfer signal to reference europium 620 nm signal. Time-Resolved Fluorescence Resonance Energy Transfer Kinase Low Volume Assay Recombinant human p38α was expressed as a His-tagged protein. To activate this protein, 3 μM unactivated p38α was incubated in 200 mM Hepes pH7.4, 625 mM NaCl, 1 mM DTT with 27 nM active MKK6 (Upstate), 1 mM ATP and 10 mM MgCl2 The activity of the MKK6-activated p38α was assessed using a time-resolved fluorescence resonance energy transfer (TR-FRET) assay. Biotinylated-GST-ATF2 (residues 19-96, 400 nM final), ATP (125 μM final) and MgCl2 ([…]) in assay buffer (40 mM HEPES pH 7.4, 1 mM DTT) were added to wells containing 0.1 μl of various concentrations of compound or DMSO vehicle (1.7% final) in Greiner low volume 384 well black plate. The reaction was initiated by the addition of MKK6-activated p38α (100 pM final) to give a total volume of 6 μl. The reaction was incubated for 120 minutes at room temperature, then terminated by the addition of 3 μl of detection reagent in buffer (100 mM HEPES pH 7.4, 150 mM NaCl, 0.1% w/v BSA, 1 mM DTT, 100 mM EDTA) containing antiphosphothreonine-ATF2-71 polyclonal antibody (Cell Signalling Technology, Beverly Mass., USA) labelled with W-1024 europium chelate (Wallac OY, Turku, Finland), and APC-labelled streptavidin (Prozyme, San Leandro, Calif., USA). The reaction was further incubated for 60 minutes at room temperature. The degree of phosphorylation of GST-ATF2 was measured using a BMG Rubystar plate reader (BMG, UK) as a ratio of specific 665 nm energy transfer signal to reference europium 620 nm signal. It is noted that there are two assay formats shown above for the Time-resolved fluorescence resonance energy transfer kinase assay. The only difference between these two assays is the volume used and the plate type. […] The results described herein may have been performed in either assay format and are not differentiated as to which. […] For purposes herein the HTRF assay and the Fluorescence anisotropy kinase binding assay: […]

[2] = tested on: influx of neutrophils to the lung in LPS-challenged rats; assay: Rat LPS neutrophilia model; format: in vivo; conditions: intratracheal, LPS aerosol 100 ug/ml 15 min, lavage 4 hours later, in at least one of the range of conditions tested, significant p<0.05, nonsignificant p>0.05
Description: The effect of compounds on the influx of neutrophils to the lung in LPS-challenged rats is evaluated as follows. The test compound is suspended in one of the following solutions: 0.5% tween 80/PBS, 0.5% tween 80/saline, 10% EtOH/saline (with pH adjusted to 2.0, or 8.0 with HCl, or unadjusted), Saline @ pH 2.0, 6.5 or 8.0, 0.5% Tragacanth, 1% DMSO/20% Encapsin/Saline, or acidified 5% Tragacanth. The suspension process may be aided by the use of a glass homogenizer. For intratracheal administration, the animals are anesthetized with inhaled isoflurane and placed in a supine position, the trachea is intubated with a steel gavage needle (1.5 inch, 22 gauge, small ball) or a Penn-Century Microsprayer Aerosolizer (model IA-IB) and 200 ul of dosing solution is delivered. The animals are visually monitored during the recovery process, which typically occurs within two minutes. It is noted that the test compounds may be alternatively administered via the microsprayer in a dry powder blend with a suitable excipient, such as lactose.
Rats treated with compound or vehicle (15 min-24 hours pretreatment) are exposed to an LPS aerosol (100 ug/ml) for 15 min. […] The harvested cells are stained (Diffquick) and counted to determine total and differential cell data. […] Inhibition of neutrophil levels relative to no compound controls is calculated based on the differential counts. […]

## CCN(CC)CCCNc1nc(-c2cc(C(=O)NCCc3c[nH]cn3)ccc2C)c2ccc(=O)n(-c3c(F)cccc3F)c2n1 [Example 146, 3-[2-{[3-(diethylamino)propyl]amino}-8-(2,6-difluorophenyl)-7-oxo-7,8-dihydropyrido[2,3-d]pyrimidin-4-yl]-N-[2-(1H-imidazol-4-yl)ethyl]-4-methylbenzamide]
[1]
  pIC50, reported as active: active

## CCN(CC)CCCNc1nc(-c2cc(C(=O)NC)ccc2C)c2ccc(=O)n(-c3c(F)cccc3F)c2n1 [Example 119, 3-[2-{[3-(diethylamino)propyl]amino}-8-(2,6-difluorophenyl)-7-oxo-7,8-dihydropyrido[2,3-d]pyrimidin-4-yl]-N,4-dimethylbenzamide]
[1]
  pIC50, reported as active: active

## CCN(CC)CCCNc1nc(-c2cc(C(=O)NC(C)(C)C)ccc2C)c2ccc(=O)n(-c3c(F)cccc3F)c2n1 [Example 126, 3-[2-{[3-(diethylamino)propyl]amino}-8-(2,6-difluorophenyl)-7-oxo-7,8-dihydropyrido[2,3-d]pyrimidin-4-yl]-N-(1,1-dimethylethyl)-4-methylbenzamide]
[1]
  pIC50, reported as active: active

## CCN(CC)CCCNc1nc(-c2cc(C(=O)NCCOC)ccc2C)c2ccc(=O)n(-c3c(F)cccc3F)c2n1 [Example 134, 3-[2-{[3-(diethylamino)propyl]amino-}8(2,6-difluorophenyl)-7-oxo-7,8-dihydropyrido[2,3-d]pyrimidin-4-yl]-4-methyl-N-[2-(methyloxy)ethyl]benzamidetrifluoroacetate]
[1]
  pIC50, reported as active: active

## Cc1ccc(C(=O)NC(C)C)cc1-c1nc(N(C)CCN(C)C)nc2c1ccc(=O)n2-c1c(F)cccc1F [Example 100, 3-{8-(2,6-difluorophenyl)-2-[[2-(dimethylamino)ethyl](methyl)amino]-7-oxo-7,8-dihydropyrido[2,3-d]-pyrimidin-4-yl}-4-methyl-N-(1-methylethyl)benzamide]
[2]
  inhibition of neutrophilia (neutrophil levels in lung lavage relative to no compound controls): statistically nonsignificant inhibition

## CCN(CC)CCCNc1nc(-c2cc(C(=O)N[C@H](C)C(C)C)ccc2C)c2ccc(=O)n(-c3c(F)cccc3F)c2n1 [Example 130]
[1]
  pIC50, reported as active: active

## CCN(CC)CCCNc1nc(-c2cc(C(=O)NCC(C)C)ccc2C)c2ccc(=O)n(-c3c(F)cccc3F)c2n1 [Example 124, 3-[2-{[3-(diethylamino)propyl]amino}-8-(2,6-difluorophenyl)-7-oxo-7,8-dihydropyrido[2,3-d]pyrimidin-4-yl]-4-methyl-N-(2-methylpropyl)benzamide]
[1]
  pIC50, reported as active: active

## CCN(CC)CCCNc1nc(-c2cc(C(=O)NCCF)ccc2C)c2ccc(=O)n(-c3c(F)cccc3F)c2n1 [Example 133, 3-[2-{[3-(diethylamino)propyl]amino}-8-(2,6-difluorophenyl)-7-oxo-7,8-dihydropyrido[2,3-d]pyrimidin-4-yl]-N-(2-fluoroethyl)-4-methylbenzamidetrifluoroacetate]
[1]
  pIC50, reported as active: active
